For assay [1], the target named is T1, Wash1 (Wiskott–Aldrich Syndrome Protein and SCAR Homologue 1), endogenous in rat brain (rat (endogenous in rat brain)) (UniProt B2RYF7).
T1 sequence: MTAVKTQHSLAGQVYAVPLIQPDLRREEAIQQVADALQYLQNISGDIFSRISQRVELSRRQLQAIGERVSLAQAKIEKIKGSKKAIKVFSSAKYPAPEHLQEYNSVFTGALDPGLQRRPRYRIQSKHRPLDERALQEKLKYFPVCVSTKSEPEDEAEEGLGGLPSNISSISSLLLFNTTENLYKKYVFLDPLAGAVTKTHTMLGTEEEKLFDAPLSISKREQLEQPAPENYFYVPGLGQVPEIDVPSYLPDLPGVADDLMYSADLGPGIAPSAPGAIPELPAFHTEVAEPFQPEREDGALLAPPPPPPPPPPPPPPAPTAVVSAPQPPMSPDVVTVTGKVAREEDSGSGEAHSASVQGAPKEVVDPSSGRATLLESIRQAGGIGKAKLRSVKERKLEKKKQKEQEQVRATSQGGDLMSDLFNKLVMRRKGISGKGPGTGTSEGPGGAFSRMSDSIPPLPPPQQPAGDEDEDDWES
Put plainly: co-IP; rat brain lysate; endogenous proteins immunoprecipitated with antibodies against them, then immunoblotted.

Assay [2] concerns the target VPS26, endogenous in rat brain (rat (endogenous in rat brain)). The assay is described as above.

This note sets out measurements from PMC3714738.

These are yes or no findings as the source states them, for the method shown. Binding seen in cells or lysates may run through a third protein. Binding can be weak; no strength is given.

For the molecule VPS26, endogenous in rat brain, the binding entry in assay [1] is listed as “binds”.

B1: Wash1 (Wiskott–Aldrich Syndrome Protein and SCAR Homologue 1), endogenous in rat brain (protein, UniProt B2RYF7 1-475)
chain: MTAVKTQHSLAGQVYAVPLIQPDLRREEAIQQVADALQYLQNISGDIFSRISQRVELSRRQLQAIGERVSLAQAKIEKIKGSKKAIKVFSSAKYPAPEHLQEYNSVFTGALDPGLQRRPRYRIQSKHRPLDERALQEKLKYFPVCVSTKSEPEDEAEEGLGGLPSNISSISSLLLFNTTENLYKKYVFLDPLAGAVTKTHTMLGTEEEKLFDAPLSISKREQLEQPAPENYFYVPGLGQVPEIDVPSYLPDLPGVADDLMYSADLGPGIAPSAPGAIPELPAFHTEVAEPFQPEREDGALLAPPPPPPPPPPPPPPAPTAVVSAPQPPMSPDVVTVTGKVAREEDSGSGEAHSASVQGAPKEVVDPSSGRATLLESIRQAGGIGKAKLRSVKERKLEKKKQKEQEQVRATSQGGDLMSDLFNKLVMRRKGISGKGPGTGTSEGPGGAFSRMSDSIPPLPPPQQPAGDEDEDDWES
B1: the binding result in assay [2] is “binds”.
